Assay results reported in patent US20200289554A1, “BIOORTHOGONAL COMPOUNDS COMPRISING A PROPARGYL GROUP FOR TREATING CANCER” (THE UNIVERSITY COURT OF THE UNIVERSITY OF EDINBURGH, priority 2016, published 2020).

Test: Ninhydrin test for detection of Pd0-mediated deprotected histamine
Details: 100 μM, 1 mg Pd0 resin in PBS, 37° C., 24 h; compared to Pd-resin+DMSO
In the case of `C#CCOc1ccc(COC(=O)NCCc2c[nH]cn2)cc1` [pPOBC-Hist, 4-proparglyoxybenzylcarbamoyl Histamine], the “ninhydrin test (free primary amine, O.D. 570 nm)” value is reported as “primary amines were detected”.
For `Cl.Cl.NCCc1c[nH]cn1` [Histamine, 2-(4-Imidazolyl)ethylamine dihydrochloride, reference compound], the “ninhydrin test (free primary amine, O.D. 570 nm)” value was “primary amines were detected”.
With `C#CCOc1ccccc1COC(=O)NCCc1c[nH]cn1` [oPOBC-Hist, 2-proparglyoxybenzylcarbamoyl Histamine] the “ninhydrin test (free primary amine, O.D. 570 nm)” value was “primary amines were detected”.

Some compounds share one wording; it may come from a single statement.
